Values of other authors as cited in patent publication US9630962B2, “4-amino-6-(2,6-dichlorophenyl)-2-(phenylamino)-pyrido[2,3-d]pyrimidin-7(8H)-one derivatives, synthesis and uses thereof” (INSTITUT QUÍMIC DE SARRIÁ, CETS FUNDACIÓ PRIVADA, priority 2013, dated 2017).
For at least one compound, name, drawing or mass did not settle the structure.

How the values were obtained:
[1] = tested on: various B-cell malignancies; details: patients with various B-cell malignancies; cited from earlier work
[2] = tested on: relapsed follicular lymphoma; details: cited from earlier work

C=CC(=O)N1CCC[C@@H](n2nc(-c3ccc(Oc4ccccc4)cc3)c3c(N)ncnc32)C1 [ibrutinib]
responses [1]: 60%
duration of response [2]: 12.3 months
